Results as given in US20210371867A1 (SYSMEX, published 2021).
Results are given in words; binding and its absence hold for the method and conditions named. Some binding calls cover weakened binding; strength is not graded here. Where a sequence is shown, tags or fusion partners need not be part of it.

Biological target: T1, human CD80/B7-1 protein (His tag) (human, UniProt P33681 35-242)
T1 construct: Recombinant His-tagged protein used as the antigen solution; also called antigen
T1 sequence (looked up): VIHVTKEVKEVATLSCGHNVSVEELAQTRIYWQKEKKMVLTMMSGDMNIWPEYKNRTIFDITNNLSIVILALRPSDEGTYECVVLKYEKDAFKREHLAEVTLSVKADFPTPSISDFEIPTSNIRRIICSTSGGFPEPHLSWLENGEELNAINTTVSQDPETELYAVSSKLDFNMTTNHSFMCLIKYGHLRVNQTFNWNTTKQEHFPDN
Assay: sandwich chemiluminescence ELISA as in Test Example 1; comparison antibody as detection antibody

binding: binds
B1: ALP fusion antibody of Example 1 (Antibody Example 1-1), linker not stated: Fab of rabbit anti-CD80 antibody, Fd-linker-BIAPII (Fab, not shown: small tags and cut ends)
heavy (part 1 of 2): QSVEESGGRLVTPGTPLTLTCTASGFSLSNNAVSWVRQAPGEGLEWIGTISSNDNTYYATWAKGRFTISKTSTTVDLKITSPTTEDTATYFCAIYYYGYGYVFNLWGPGTLVTVSSGQPKAPSVFPLAPCCGDTPSSTVTLGCLVKGYLPEPVTVTWNSGTLTNGVRTFPSVRQSSGLYSLSSVVSVTSSSQPVTCNVAHPATNTKVDKTVAPSTCSKPT
heavy (part 2 of 2): LIPAEEENPAFWNRQAAQALDVAKKLQPIQTAAKNVILFLGDGMGVPTVTATRILKGQMNGKLGPETPLAMDQFPYVALSKTYNVDRQVPDSAGTATAYLCGVKGNYRTIGVSAAARYNQCNTTRGNEVTSVINRAKKAGKAVGVVTTTRVQHASPAGAYAHTVNRNWYSDADLPADAQKNGCQDIAAQLVYNMDIDVILGGGRMYMFPEGTPDPEYPDDASVNGVRKDKQNLVQEWQAKHQGAQYVWNRTALLQAADDSSVTHLMGLFEPADMKYNVQQDHTKDPTLAEMTEAALQVLSRNPRGFYLFVEGGRIDHGHHDGKAYMALTEAIMFDNAIAKANELTSELDTLILVTADHSHVFSFGGYTLRGTSIFGLAPGKALDSKSYTSILYGNGPGYALGGGSRPDVNGSTSEEPSYRQQAAVPLASETHGGEDVAVFARGPQAHLVHGVQEETFVAHIMAFAGCVEPYTDCNLPAPA
light: ELVMTQTPASVSEPVGGTVTINCQASEDIYSSLAWYQQKPGQRPKLLMYYASTLASGVPSRFKGSGSGTEFTLTISDLECADAATYYCQSYYLSSSSRYGNAFGGGTEVVVKGDPVAPTVLIFPPAADQVATGTVTIVCVANKYFPDVTVTWEVDGTTQTTGIENSKTPQNSADCTYNLSSTLTLTSTQYNSHKEYTCKVTQGTTSVVQSFIG
